PubChem BioAssay AID1259280 – Sanger Institute – 2017

Test: 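Essential kinases and drug-combination synergies in SNU407 cells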 (primary screen)
Cells: human SNU407 colorectal cancer cells
Reagents: siRNA pool against human genes
Challenge: anchor drugs BYL719 at 1 µM, cetuximab at 5 µg/ml or trametinib at 10 nM, or DMSO vehicle alone; exposure time not given
Detection: 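Viability relative to non-targeting control siRNA, expressed as robust z-score, plus a synergy score for each of the three anchor drugs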
Reading the numbers: viability z-score, no drug: higher = more cells survive the knock-down
Active means: 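Essential calls require a no-drug robust viability z-score under -3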
Calls: active = essential (knock-down alone kills cells); inactive = no change without drug
Here is an unselected part of 794 reagents tested. 12 of all reagents (1.5%) count as active. 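Calls cover knock-down without drug only; synergy scores stand apart, values above 0.15 being treated as synergy.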 Further read-outs or replicates are left out here. Reagent sequences are not shown. Not stated in the record: the amount of reagent, the time to read-out.

MERTK (GeneID 10461) [SID135620626]
- viability z-score, no drug: 0.901
- Call: inactive

NME7 (GeneID 29922) [SID56479121]
- viability z-score, no drug: 0.901
- Call: inactive

TYK2 (GeneID 7297) [SID135620633]
- viability z-score, no drug: 0.901
- Call: inactive

PRKAG2 (GeneID 51422) [SID135621825]
- viability z-score, no drug: -0.253
- Call: inactive

TTBK2 (GeneID 146057) [SID152155925]
- viability z-score, no drug: -0.166
- Call: inactive

TSSK1B (GeneID 83942) [SID56478967]
- viability z-score, no drug: 0.302
- Call: inactive

BRWD1 (GeneID 54014) [SID135622024]
- viability z-score, no drug: -0.483
- Call: inactive

PSTK (GeneID 118672) [SID134320501]
- viability z-score, no drug: 0.0745
- Call: inactive

HUNK (GeneID 30811) [SID56478785]
- viability z-score, no drug: -1.28
- Call: inactive

HIPK1 (GeneID 204851) [SID135620891]
- viability z-score, no drug: -0.142
- Call: inactive

Not a retest: entries from further up.
TTBK2 (GeneID 146057) [SID152155925]
- viability z-score, no drug: -0.166
- Call: inactive

TSSK1B (GeneID 83942) [SID56478967]
- viability z-score, no drug: 0.302
- Call: inactive

More entries follow:
DCLK1 (GeneID 9201) [SID56478913]
- viability z-score, no drug: -0.092
- Call: inactive

RIPK3 (GeneID 11035) [SID152154350]
- viability z-score, no drug: 0.901
- Call: inactive

MINK1 (GeneID 50488) [SID152155809]
- viability z-score, no drug: -0.727
- Call: inactive

PTK6 (GeneID 5753) [SID152152810]
- viability z-score, no drug: 0.901
- Call: inactive

STRADB (GeneID 55437) [SID135620967]
- viability z-score, no drug: 0.717
- Call: inactive

BMX (GeneID 660) [SID152147462]
- viability z-score, no drug: 0.901
- Call: inactive

MED24 (GeneID 9862) [SID152152726]
- viability z-score, no drug: 0.812
- Call: inactive

MASTL (GeneID 84930) [SID56478754]
- viability z-score, no drug: 0.507
- Call: inactive

CAMK2G (GeneID 818) [SID56478805]
- viability z-score, no drug: 0.541
- Call: inactive
